Experimental data: the supplement of paper PMC12595434, “Development of retinoid nuclear receptor pathway antagonists through targeting aldehyde dehydrogenase 1A3” (iScience, 2025)
The list shows a part of the results. Single values of this set are uncertain.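 Many melting curves are irregular; where none melted, Tm was taken as 64 °C.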

Protein sequences, listed by entry. Tags and fused reporters are not part of them. Lines headed by an entry give the natural chain unless they say otherwise; changes in a name come on top.
UniProt P49189: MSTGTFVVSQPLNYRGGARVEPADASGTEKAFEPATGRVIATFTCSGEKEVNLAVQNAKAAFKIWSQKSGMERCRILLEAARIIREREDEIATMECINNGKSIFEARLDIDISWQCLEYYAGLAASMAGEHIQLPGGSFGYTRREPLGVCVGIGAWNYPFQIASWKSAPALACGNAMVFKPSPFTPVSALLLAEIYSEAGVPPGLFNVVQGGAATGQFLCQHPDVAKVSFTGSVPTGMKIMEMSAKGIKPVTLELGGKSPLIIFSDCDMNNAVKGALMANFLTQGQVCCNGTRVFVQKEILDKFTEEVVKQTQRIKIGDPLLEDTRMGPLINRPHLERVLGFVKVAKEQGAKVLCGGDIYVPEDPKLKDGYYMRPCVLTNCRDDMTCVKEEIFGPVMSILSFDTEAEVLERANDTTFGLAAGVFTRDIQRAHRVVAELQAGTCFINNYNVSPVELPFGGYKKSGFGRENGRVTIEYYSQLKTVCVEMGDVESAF
UniProt P49821, whole entry: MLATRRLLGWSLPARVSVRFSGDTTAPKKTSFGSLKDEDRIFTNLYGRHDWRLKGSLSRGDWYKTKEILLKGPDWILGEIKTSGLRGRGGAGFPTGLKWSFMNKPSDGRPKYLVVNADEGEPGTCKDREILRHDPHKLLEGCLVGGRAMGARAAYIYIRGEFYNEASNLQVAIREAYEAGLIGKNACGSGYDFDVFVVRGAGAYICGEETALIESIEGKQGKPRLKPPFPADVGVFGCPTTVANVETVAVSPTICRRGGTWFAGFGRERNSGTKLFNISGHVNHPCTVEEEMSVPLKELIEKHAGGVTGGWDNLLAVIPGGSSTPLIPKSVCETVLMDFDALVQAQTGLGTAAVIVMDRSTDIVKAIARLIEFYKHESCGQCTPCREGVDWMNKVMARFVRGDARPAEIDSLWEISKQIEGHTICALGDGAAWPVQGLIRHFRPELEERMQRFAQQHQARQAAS
UniProt P47712: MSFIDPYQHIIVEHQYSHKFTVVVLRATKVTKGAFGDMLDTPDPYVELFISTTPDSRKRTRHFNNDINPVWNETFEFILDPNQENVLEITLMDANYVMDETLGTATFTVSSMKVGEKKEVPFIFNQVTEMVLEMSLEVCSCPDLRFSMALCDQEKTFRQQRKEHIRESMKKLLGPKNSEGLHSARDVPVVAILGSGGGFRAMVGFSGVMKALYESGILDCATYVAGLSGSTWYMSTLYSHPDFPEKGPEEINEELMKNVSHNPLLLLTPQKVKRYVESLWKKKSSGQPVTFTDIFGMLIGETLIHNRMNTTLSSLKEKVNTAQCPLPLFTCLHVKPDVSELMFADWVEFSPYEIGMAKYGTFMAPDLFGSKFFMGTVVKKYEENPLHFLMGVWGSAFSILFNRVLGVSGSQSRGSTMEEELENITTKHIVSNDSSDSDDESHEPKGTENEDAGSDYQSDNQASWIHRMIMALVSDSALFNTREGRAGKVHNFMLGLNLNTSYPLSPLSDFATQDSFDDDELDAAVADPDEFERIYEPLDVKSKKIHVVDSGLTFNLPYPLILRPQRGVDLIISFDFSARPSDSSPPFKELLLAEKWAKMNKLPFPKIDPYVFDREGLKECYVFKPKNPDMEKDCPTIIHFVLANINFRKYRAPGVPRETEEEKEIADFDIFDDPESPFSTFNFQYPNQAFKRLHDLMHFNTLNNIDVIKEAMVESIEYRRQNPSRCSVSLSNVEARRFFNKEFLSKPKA
UniProt P40938, whole entry: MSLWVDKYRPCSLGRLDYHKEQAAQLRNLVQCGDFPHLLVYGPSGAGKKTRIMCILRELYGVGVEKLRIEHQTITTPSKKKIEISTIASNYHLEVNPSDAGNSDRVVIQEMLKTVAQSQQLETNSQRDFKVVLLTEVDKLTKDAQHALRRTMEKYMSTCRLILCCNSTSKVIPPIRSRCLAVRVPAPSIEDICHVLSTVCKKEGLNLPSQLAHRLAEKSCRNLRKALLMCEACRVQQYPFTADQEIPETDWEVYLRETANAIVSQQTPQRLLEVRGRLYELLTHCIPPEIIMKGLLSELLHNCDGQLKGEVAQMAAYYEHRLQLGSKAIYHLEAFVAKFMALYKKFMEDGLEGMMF
UniProt P37837: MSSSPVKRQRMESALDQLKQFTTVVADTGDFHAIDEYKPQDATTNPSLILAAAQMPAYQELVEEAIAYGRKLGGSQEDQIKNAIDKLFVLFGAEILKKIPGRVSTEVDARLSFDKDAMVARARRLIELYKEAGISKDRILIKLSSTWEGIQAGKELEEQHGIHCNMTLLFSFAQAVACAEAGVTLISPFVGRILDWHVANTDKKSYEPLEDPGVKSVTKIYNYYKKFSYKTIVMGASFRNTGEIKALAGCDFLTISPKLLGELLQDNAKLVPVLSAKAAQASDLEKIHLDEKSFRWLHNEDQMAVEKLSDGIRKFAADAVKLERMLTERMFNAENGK
UniProt P49005: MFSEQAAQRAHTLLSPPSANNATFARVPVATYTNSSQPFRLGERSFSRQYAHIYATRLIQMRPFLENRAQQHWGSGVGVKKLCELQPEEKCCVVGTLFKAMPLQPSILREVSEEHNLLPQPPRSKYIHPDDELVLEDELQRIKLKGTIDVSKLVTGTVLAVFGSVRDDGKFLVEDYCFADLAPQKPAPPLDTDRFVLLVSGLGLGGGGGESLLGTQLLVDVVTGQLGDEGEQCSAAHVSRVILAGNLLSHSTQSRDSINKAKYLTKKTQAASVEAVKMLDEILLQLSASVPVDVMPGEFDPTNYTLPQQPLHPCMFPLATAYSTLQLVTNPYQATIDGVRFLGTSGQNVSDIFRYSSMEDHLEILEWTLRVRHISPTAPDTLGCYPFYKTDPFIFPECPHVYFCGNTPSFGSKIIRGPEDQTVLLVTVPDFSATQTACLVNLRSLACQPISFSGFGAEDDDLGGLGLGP
UniProt P49459, whole entry: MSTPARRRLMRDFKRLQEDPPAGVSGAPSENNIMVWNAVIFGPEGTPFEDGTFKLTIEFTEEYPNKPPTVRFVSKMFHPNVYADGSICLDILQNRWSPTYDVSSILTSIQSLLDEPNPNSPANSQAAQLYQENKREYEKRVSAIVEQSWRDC
UniProt P41743, whole entry: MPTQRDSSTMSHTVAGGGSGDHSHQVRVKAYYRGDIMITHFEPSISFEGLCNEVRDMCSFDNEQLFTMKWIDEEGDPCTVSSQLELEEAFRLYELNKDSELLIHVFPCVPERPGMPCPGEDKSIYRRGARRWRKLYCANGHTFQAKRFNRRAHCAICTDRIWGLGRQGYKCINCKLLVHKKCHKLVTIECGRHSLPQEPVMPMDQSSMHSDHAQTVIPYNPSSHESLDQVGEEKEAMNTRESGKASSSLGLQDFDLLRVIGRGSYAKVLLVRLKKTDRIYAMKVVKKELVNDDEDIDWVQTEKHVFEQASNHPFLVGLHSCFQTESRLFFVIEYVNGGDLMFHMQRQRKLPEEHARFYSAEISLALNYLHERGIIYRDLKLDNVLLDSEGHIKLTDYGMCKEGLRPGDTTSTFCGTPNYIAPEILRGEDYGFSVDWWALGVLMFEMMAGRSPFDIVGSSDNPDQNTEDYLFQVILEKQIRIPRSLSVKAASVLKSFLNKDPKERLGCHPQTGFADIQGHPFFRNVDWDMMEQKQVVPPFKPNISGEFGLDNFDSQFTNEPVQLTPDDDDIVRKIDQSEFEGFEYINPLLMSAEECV

Compound: CCc1cnccc1C(=O)Nc1cc2c(cc1F)NC(=O)CC2
Test: melting temperature shift (DMSO Tm minus MBE1-treated Tm) in cellular thermal proteome profiling; higher = less thermal stabilization by MBE1 (negative = stabilized by MBE1)
Settings: A375

Row | Target | melting temperature shift (MBE1 concentration: 100 nM) [°C] | melting temperature shift (MBE1 concentration: 1 uM) [°C]
1 | ALDH9A1 (UniProt P49189) | -1.29 | -1.47
2 | UniProt P50281 | 0.555 | -1.54
3 | NDUFV1 (UniProt P49821) | -0.51 | 0.711
4 | PLA2G4A (UniProt P47712) | 0.25 | -0.208
5 | RFC3 (UniProt P40938) | -0.743 | -0.689
6 | TALDO1 (UniProt P37837) | -0.376 | 0.0402
7 | POLD2 (UniProt P49005) | 0.458 | 0.379
8 | UBE2A (UniProt P49459) | -0.382 | 0.704
9 | UniProt P41743 | 0.537 | 0.464
